The results in this text go back to the supplement of paper PMC12024529.

One experiment has as its system HEK293 WT BDD-FVIII-Gluc. Description: secreted FVIII-Gluc luciferase Z-score vs DMSO control; higher = more FVIII-Gluc secretion. To be noted: 5 µM; 24 h.
Experiment [1] deals with HEK293 p.N1941S BDD-FVIII-Gluc. The description is as above. The settings on record: 5 µM; 24 h.

Structures can show the parent of a compound that is named as a salt. The list shows a part of the results. Baselines shift from plate to plate; read single values as rough.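 The cells are HEK293 lines stably expressing B-domain-deleted factor VIII fused to Gaussia luciferase, either wild type or a misfolding-prone missense mutant. Each score is mean luminescence from triplicate wells minus the DMSO mean, divided by the DMSO standard deviation; a score of 2 or more counts as a hit, and low scores may reflect lower secretion or poorer cell viability.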

As for `NC12CC3CC(CC(C3)C1)C2` [Amantadine hydrochloride (Symmetrel)], the “secreted FVIII-Gluc luciferase Z-score” value was inactive: -0.19 in the experiment on HEK293 WT BDD-FVIII-Gluc and inactive: 0.502 in experiment [1].

Consider `COc1cc(/C=C/C(=O)N2CCN(CC(=O)N3CCCC3)CC2)cc(OC)c1OC` [Cinepazide maleate], for which the “secreted FVIII-Gluc luciferase Z-score” value in the experiment on HEK293 WT BDD-FVIII-Gluc was active: 2.27; in experiment [1], inactive: 0.258.

Take `Nc1c2c(nc3ccccc13)CCCC2` [Tacrine HCl]: the “secreted FVIII-Gluc luciferase Z-score” value in the experiment on HEK293 WT BDD-FVIII-Gluc was inactive: -0.717; in experiment [1], inactive: 1.99.

Regarding `CC(/C=C1\SC(=S)N(CC(=O)O)C1=O)=C\c1ccccc1` [Epalrestat], the results for the “secreted FVIII-Gluc luciferase Z-score” value (in the experiment on HEK293 WT BDD-FVIII-Gluc; in experiment [1]) were inactive: -0.207 and inactive: 0.591, respectively.

Turning to `CC[C@@H](CO)NCCN[C@@H](CC)CO` [Ethambutol HCl], the “secreted FVIII-Gluc luciferase Z-score” value is inactive: 0.0775 with HEK293 WT BDD-FVIII-Gluc and inactive: -0.332 in experiment [1].

In the case of `COc1ccc(C2CNC(=O)C2)cc1OC1CCCC1` (stereo not given) [Rolipram], the “secreted FVIII-Gluc luciferase Z-score” value with HEK293 WT BDD-FVIII-Gluc is inactive: -14.1; in experiment [1] it was inactive: -1.08.

Consider `CO[C@@]1(NC(=O)C(C(=O)O)c2ccc(O)cc2)C(=O)N2C(C(=O)O)=C(CSc3nnnn3C)CO[C@@H]21` (stereo not given in full) [Moxalactam Disodium], for which the “secreted FVIII-Gluc luciferase Z-score” value in the experiment on HEK293 WT BDD-FVIII-Gluc is inactive: 0.736; in experiment [1] it was inactive: 1.75.

For `CCOC(=O)[C@H](CCc1ccccc1)N[C@H]1CS[C@H](c2cccs2)CN(CC(=O)O)C1=O` [Temocapril HCl], the “secreted FVIII-Gluc luciferase Z-score” value in the experiment with HEK293 WT BDD-FVIII-Gluc was inactive: -0.128; in experiment [1], inactive: 0.152.

Regarding `Nc1nc(=O)n([C@@H]2CS[C@H](CO)O2)cc1F` [Emtricitabine (Emtriva)], the entries for the “secreted FVIII-Gluc luciferase Z-score” value (in the experiment on HEK293 WT BDD-FVIII-Gluc; in experiment [1]) were inactive: -1.36 and inactive: 1.65, respectively.

With `CCCCC(=O)O[C@H]1CC[C@H]2[C@@H]3CCc4cc(O)ccc4[C@H]3CC[C@]12C` [Estradiol valerate], the “secreted FVIII-Gluc luciferase Z-score” value in the experiment with HEK293 WT BDD-FVIII-Gluc is inactive: -1.14; in experiment [1], inactive: -2.52.

`CC1(C)O[C@@H]2C[C@H]3[C@@H]4CCC5=CC(=O)C=C[C@]5(C)[C@H]4[C@@H](O)C[C@]3(C)[C@]2(C(=O)CO)O1` [Desonide]: the “secreted FVIII-Gluc luciferase Z-score” value in the experiment on HEK293 WT BDD-FVIII-Gluc was active: 7.8; in experiment [1], active: 4.88.

In the case of `CCCc1nc(C(C)(C)O)c(C(=O)OCc2oc(=O)oc2C)n1Cc1ccc(-c2ccccc2-c2nnn[nH]2)cc1` [Olmesartan medoxomil (Benicar)], the results for the “secreted FVIII-Gluc luciferase Z-score” value (in the experiment with HEK293 WT BDD-FVIII-Gluc; in experiment [1]) were inactive: -0.173 and inactive: -2.68, respectively.

Take `COc1ccc(CN2CCN(C(c3ccc(F)cc3)c3ccc(F)cc3)CC2)c(OC)c1OC` [Lomerizine HCl]: the “secreted FVIII-Gluc luciferase Z-score” value in the experiment with HEK293 WT BDD-FVIII-Gluc was inactive: -1.75; in experiment [1], inactive: -2.64.

As for `CC(=O)OCC(=O)[C@@]1(O)CC[C@H]2[C@@H]3CCC4=CC(=O)CC[C@]4(C)[C@H]3C(=O)C[C@@]21C` [Cortisone acetate (Cortone)], the “secreted FVIII-Gluc luciferase Z-score” value with HEK293 WT BDD-FVIII-Gluc is inactive: 0.143; in experiment [1] it was inactive: -1.07.

With `CC(C)(O/N=C(\C(=O)N[C@@H]1C(=O)N2C(C(=O)[O-])=C(C[n+]3ccccc3)CS[C@H]12)c1csc(N)n1)C(=O)O` [Ceftazidime Pentahydrate], the “secreted FVIII-Gluc luciferase Z-score” value was inactive: -0.774 in the experiment on HEK293 WT BDD-FVIII-Gluc and inactive: 1.25 in experiment [1].

Take `CC(c1cc2ccccc2s1)N(O)C(N)=O` (stereo not given) [Zileuton]: the “secreted FVIII-Gluc luciferase Z-score” value in the experiment on HEK293 WT BDD-FVIII-Gluc was inactive: -3.58; in experiment [1], inactive: 0.0221.

Regarding `COc1cc2c(cc1O)CC[C@@H]1[C@@H]2CC[C@]2(C)[C@@H](O)CC[C@@H]12` [2-Methoxyestradiol], the “secreted FVIII-Gluc luciferase Z-score” value with HEK293 WT BDD-FVIII-Gluc was inactive: -2.2; in experiment [1], inactive: -6.58.

Turning to `CC(C(=O)O)c1ccc2c(c1)CC(=O)c1ccccc1S2` (stereo not given) [Zaltoprofen], the “secreted FVIII-Gluc luciferase Z-score” value with HEK293 WT BDD-FVIII-Gluc is inactive: 0.536; in experiment [1], inactive: -0.275.

As to `CCN1CCC[C@H]1CNC(=O)c1cc(S(N)(=O)=O)ccc1OC` [Levosulpiride (Levogastrol)], the results for the “secreted FVIII-Gluc luciferase Z-score” value (in the experiment on HEK293 WT BDD-FVIII-Gluc; in experiment [1]) were inactive: -1.52 and inactive: -0.823, respectively.

On to `COc1ccccc1OCC(O)CN1CCN(CC(=O)Nc2c(C)cccc2C)CC1` (stereo not given) [Ranolazine (Ranexa)], for which the entries for the “secreted FVIII-Gluc luciferase Z-score” value (in the experiment on HEK293 WT BDD-FVIII-Gluc; in experiment [1]) were inactive: -3.59 and inactive: -0.46, respectively.

For `COc1c(C)c2c(c(O)c1C/C=C(\C)CCC(=O)OCCN1CCOCC1)C(=O)OC2` [Mycophenolate mofetil (CellCept)], the results for the “secreted FVIII-Gluc luciferase Z-score” value (in the experiment with HEK293 WT BDD-FVIII-Gluc; in experiment [1]) were inactive: -12 and inactive: -3.83, respectively.

With `CC1=C(/C=C/C(C)=C/C=C/C(C)=C/C(=O)O)C(C)(C)CCC1` [Tretinoin (Aberela)], the “secreted FVIII-Gluc luciferase Z-score” value was inactive: -3.16 with HEK293 WT BDD-FVIII-Gluc and inactive: 0.674 in experiment [1].

As to `CC(=O)O[C@H]1C(=O)[C@@]2(C)[C@H]([C@H](OC(=O)c3ccccc3)[C@]3(O)C[C@H](OC(=O)[C@H](O)[C@@H](NC(=O)c4ccccc4)c4ccccc4)C(C)=C1C3(C)C)[C@]1(OC(C)=O)CO[C@@H]1C[C@@H]2O` [Paclitaxel (Taxol)], the “secreted FVIII-Gluc luciferase Z-score” value was inactive: -3.05 in the experiment with HEK293 WT BDD-FVIII-Gluc and inactive: -11.4 in experiment [1].

Consider `CCC1=C[C@@H]2CN(C1)Cc1c([nH]c3ccccc13)[C@@](C(=O)OC)(c1cc3c(cc1OC)N(C)[C@H]1[C@@](O)(C(=O)OC)[C@H](OC(C)=O)[C@]4(CC)C=CCN5CC[C@]31[C@@H]54)C2` [Vinorelbine Tartrate], for which the “secreted FVIII-Gluc luciferase Z-score” value with HEK293 WT BDD-FVIII-Gluc is inactive: -5.6; in experiment [1], inactive: -3.47.

On to `CC(=O)O[C@]1(C(C)=O)CC[C@H]2[C@@H]3CCC4=CC(=O)CCC4=C3[C@@H](c3ccc(N(C)C)cc3)C[C@@]21C` [Ulipristal], for which the “secreted FVIII-Gluc luciferase Z-score” value in the experiment with HEK293 WT BDD-FVIII-Gluc was inactive: -1.59; in experiment [1] it was inactive: -0.878.
